These are yes or no findings as the source states them, for the method shown. In cells and extracts the contact can be indirect. Some binding calls cover weakened binding; strength is not graded here. Where a sequence is shown, tags or fusion partners need not be part of it.
T1: GFP-Ldo16 expressed from a NOP1 promoter (S. cerevisiae) (UniProt P40219)
T1 sequence: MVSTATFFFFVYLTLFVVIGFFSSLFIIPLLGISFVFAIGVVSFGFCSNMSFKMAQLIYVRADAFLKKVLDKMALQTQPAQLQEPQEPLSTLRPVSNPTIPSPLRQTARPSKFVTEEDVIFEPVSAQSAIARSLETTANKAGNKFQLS

T2: GFP-Ldo16 expressed from a NOP1 promoter (S. cerevisiae), P40219
T2 chain: T1 sequence

B1: Ldb16 (protein, UniProt P25587 1-256)
chain: MFVVDWSVQLCMGVISPLFRALVQLPLSIFVWNGFQLVALPINIPLRLFLGTSLSRLVAQTSTLDFYVVLTLFQYFAVLCAFGSIIGLIFGFILGVFHSICGVPSVYISLEWKRWFAPIRTVLERASTSIVNIMRGQTIAPIPMPKPNPTHISKPNMKKFHDEPGADDMTITHDVNCYITPCQTPTNEKIQHYNNDSFNTTTTDDEPTDIWDRSDTYQNSFVTNETLMSLSNRAKLRRNASDADIVNIKILRRNSR
B2: Sei1, Q06058 1-285 (protein)
chain: MKINVSRPLQFLQWSSYIVVAFLIQLLIILPLSILIYHDFYLRLLPADSSNVVPLNTFNILNGVQFGTKFFQSIKSIPVGTDLPQTIDNGLSQLIPMRDNMEYKLDLNLQLYCQSKTDHLNLDNLLIDVYRGPGPLLGAPGGSNSKDEKIFHTSRPIVCLALTDSMSPQEIEQLGPSRLDVYDEEWLNTIRIEDKISLESSYETISVFLKTEIAQRNLIIHPESGIKFRMNFEQGLRNLMLRKRFLSYIIGISIFHCIICVLFFITGCTAFIFVRKGQEKSKKHS

What was measured:
[1] = biological target: T1, GFP-Ldo16 expressed from a NOP1 promoter (S. cerevisiae); experiment: co-IP; GFP-trap from lysates with 1% digitonin, 4°C; elution with 0.2 M glycine pH 2.5; SDS-PAGE and Western blot with antibodies against Sei1 and Ldb16
[2] = biological target: T2, GFP-Ldo16 expressed from a NOP1 …; experiment: as above; conditions: remark: other sources report otherwise

binding [1]	binding [2]	Binder
binds		B1
	binds	B2

Reference: paper PMC5748981
